Patent US11340219B2, “Anti-pY1235-MET immunological binding reagent” (THE UNITED STATES OF AMERICA AS REPRESENTED BY THE …, priority 2016, dated 2022)
At least one compound was matched to its structure with a doubt left.

Chains of the proteins cited; added tags and fusions are not shown. Residues count along the entry.
UniProt P08581, 25-1390: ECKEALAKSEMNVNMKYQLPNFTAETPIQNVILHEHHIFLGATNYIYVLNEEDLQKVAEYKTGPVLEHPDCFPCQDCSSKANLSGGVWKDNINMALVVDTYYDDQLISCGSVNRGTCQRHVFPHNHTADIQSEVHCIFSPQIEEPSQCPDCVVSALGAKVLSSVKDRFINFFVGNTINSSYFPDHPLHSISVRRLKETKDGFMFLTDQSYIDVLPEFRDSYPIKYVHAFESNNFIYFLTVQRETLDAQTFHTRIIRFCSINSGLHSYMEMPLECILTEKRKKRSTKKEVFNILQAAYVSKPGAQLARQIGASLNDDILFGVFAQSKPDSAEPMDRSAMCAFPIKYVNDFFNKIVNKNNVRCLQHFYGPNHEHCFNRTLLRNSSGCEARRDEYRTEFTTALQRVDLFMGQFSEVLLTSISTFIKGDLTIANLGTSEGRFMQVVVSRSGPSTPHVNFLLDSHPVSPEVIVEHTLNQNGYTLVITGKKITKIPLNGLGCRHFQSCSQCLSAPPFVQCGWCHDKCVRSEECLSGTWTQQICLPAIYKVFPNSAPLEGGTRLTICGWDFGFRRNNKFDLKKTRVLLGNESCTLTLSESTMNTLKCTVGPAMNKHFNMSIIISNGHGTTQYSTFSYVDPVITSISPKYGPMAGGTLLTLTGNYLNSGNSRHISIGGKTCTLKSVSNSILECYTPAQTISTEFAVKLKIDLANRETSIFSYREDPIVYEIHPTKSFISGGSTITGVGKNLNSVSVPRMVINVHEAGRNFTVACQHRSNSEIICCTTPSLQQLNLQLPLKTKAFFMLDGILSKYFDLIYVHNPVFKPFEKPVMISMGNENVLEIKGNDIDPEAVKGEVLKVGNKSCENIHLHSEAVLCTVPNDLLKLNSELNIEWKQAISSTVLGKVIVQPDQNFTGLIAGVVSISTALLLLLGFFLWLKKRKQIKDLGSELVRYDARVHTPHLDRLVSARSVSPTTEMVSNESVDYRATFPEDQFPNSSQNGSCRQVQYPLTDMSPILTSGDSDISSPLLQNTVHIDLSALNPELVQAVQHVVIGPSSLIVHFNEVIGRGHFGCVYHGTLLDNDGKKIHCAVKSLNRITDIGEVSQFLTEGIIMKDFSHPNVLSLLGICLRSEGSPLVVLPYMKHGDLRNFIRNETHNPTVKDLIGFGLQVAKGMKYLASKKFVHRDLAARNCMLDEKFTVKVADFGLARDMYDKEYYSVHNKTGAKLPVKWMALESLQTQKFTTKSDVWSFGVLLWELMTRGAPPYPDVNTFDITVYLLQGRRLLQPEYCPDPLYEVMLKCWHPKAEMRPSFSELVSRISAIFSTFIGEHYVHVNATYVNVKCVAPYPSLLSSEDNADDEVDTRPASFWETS

Target: MET (Homo sapiens, UniProt P08581)
Assay: Full-length MET and pMET:MET ratio by MET immunoassays in SNU5 xenografts
Type: in vivo
Set-up: mice bearing GTL-16 and SNU5 xenografts were randomized when tumors reached 200±25 mm^3; endogenous in cells; host or cells: GTL-16 and SNU5 human gastric carcinoma cells grown as xenografts in athymic nude mice
Conditions: SNU5, day 8, single agent

## O=C1NC(=O)[C@@H](c2cn3c4c(cccc24)CCC3)[C@@H]1c1c[nH]c2ccccc12 [tivantinib]
  full-length MET levels: Neither single-agent pazopanib nor tivantinib affected full-length MET levels
  pY1235-MET:MET ratio compared to vehicle: not
  pY1356-MET:MET ratio compared to vehicle: not
